Reference: the supplement of paper PMC10849652
Some of the results follow.

Sequences of proteins named here, by UniProt entry; tags and fusion partners are left off. A change or cut given only in a name is not applied to a line headed by its entry.
UniProt Q6ZUT9: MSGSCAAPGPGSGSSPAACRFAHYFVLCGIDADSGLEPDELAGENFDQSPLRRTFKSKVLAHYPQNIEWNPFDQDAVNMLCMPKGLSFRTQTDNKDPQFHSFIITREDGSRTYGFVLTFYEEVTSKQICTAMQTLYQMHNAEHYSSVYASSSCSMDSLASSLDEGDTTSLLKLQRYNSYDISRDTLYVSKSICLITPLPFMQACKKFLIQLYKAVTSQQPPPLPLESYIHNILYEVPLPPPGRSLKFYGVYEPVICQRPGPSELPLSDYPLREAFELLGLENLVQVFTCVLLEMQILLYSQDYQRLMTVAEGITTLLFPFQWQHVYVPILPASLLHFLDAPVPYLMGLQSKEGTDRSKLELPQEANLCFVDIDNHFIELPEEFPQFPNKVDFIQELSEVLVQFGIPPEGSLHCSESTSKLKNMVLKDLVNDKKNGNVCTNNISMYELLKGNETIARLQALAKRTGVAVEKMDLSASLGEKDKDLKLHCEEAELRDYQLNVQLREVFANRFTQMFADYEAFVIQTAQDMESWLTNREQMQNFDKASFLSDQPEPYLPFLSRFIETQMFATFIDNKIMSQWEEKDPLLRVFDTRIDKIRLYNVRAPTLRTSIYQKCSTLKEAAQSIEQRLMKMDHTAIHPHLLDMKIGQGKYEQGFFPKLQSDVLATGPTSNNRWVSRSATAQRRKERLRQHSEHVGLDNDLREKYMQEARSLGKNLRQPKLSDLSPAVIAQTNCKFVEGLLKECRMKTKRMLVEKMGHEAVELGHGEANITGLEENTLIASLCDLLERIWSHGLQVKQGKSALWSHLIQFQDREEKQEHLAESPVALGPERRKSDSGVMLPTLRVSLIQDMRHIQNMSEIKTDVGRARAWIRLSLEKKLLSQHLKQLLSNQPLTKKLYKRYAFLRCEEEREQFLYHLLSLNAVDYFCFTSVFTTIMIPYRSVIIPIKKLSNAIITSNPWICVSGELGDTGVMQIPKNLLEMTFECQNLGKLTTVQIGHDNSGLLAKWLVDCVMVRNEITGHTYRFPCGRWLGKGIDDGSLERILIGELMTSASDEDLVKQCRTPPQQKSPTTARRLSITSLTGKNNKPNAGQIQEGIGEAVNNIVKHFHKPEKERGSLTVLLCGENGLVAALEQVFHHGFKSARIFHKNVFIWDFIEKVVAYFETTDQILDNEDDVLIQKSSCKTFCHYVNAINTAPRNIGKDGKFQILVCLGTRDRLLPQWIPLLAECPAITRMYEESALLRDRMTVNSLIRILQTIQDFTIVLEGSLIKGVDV
UniProt P17661, whole entry, looked up: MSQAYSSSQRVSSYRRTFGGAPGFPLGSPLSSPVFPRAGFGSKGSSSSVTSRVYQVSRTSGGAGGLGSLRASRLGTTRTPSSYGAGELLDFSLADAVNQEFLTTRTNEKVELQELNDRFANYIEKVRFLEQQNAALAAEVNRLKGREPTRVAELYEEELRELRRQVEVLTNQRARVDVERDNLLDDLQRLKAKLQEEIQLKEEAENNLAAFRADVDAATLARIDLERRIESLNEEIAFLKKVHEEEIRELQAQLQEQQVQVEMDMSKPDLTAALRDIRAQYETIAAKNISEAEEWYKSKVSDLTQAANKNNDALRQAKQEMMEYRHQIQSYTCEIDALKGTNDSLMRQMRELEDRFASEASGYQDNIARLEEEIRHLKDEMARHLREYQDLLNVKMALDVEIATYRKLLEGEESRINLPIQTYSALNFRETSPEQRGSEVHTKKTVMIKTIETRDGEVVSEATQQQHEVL
UniProt Q6ZN54: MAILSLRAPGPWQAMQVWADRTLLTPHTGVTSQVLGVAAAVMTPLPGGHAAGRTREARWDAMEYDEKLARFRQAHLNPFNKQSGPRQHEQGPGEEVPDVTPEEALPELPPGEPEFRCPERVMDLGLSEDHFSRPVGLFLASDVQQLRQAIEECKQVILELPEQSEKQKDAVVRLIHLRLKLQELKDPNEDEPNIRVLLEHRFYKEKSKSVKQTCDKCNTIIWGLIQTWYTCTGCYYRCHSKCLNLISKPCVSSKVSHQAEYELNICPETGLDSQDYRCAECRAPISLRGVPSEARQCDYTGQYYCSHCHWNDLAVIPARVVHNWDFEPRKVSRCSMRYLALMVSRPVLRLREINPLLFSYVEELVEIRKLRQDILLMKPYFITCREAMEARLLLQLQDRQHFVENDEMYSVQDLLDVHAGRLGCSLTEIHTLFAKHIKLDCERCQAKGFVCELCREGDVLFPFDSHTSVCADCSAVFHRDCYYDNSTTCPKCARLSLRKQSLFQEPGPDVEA
UniProt Q9NQI0, whole entry, looked up: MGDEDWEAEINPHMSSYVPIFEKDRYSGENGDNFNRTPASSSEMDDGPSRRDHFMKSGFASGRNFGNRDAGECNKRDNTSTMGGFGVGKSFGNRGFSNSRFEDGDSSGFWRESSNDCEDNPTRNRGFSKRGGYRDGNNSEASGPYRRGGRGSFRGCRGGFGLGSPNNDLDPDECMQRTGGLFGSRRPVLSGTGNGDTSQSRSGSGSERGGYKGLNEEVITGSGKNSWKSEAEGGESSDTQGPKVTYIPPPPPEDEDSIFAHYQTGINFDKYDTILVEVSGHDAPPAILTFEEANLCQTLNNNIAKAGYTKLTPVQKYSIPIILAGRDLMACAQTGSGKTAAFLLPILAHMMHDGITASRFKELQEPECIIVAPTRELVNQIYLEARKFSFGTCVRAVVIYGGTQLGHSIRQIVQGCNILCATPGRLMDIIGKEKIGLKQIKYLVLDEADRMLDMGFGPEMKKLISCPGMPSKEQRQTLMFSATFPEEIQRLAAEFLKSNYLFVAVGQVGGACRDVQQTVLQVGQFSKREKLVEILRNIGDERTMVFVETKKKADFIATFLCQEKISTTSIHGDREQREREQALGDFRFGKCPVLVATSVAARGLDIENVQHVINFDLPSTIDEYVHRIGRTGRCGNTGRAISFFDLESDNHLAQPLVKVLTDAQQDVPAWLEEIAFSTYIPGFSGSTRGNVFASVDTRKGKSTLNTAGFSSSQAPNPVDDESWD
UniProt Q96SQ9: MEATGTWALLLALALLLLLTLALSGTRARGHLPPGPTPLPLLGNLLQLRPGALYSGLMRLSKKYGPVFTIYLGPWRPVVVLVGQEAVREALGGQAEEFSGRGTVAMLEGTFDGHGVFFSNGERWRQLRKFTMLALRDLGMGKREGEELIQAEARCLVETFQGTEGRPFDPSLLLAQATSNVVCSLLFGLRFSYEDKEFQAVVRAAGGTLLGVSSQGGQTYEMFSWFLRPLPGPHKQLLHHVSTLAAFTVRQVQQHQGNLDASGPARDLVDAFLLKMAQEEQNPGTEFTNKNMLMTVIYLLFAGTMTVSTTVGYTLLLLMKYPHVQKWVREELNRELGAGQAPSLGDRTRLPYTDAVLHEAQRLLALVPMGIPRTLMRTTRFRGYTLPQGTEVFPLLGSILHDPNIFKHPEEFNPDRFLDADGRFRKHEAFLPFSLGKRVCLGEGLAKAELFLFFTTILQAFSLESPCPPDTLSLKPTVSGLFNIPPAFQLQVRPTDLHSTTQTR
UniProt O75140: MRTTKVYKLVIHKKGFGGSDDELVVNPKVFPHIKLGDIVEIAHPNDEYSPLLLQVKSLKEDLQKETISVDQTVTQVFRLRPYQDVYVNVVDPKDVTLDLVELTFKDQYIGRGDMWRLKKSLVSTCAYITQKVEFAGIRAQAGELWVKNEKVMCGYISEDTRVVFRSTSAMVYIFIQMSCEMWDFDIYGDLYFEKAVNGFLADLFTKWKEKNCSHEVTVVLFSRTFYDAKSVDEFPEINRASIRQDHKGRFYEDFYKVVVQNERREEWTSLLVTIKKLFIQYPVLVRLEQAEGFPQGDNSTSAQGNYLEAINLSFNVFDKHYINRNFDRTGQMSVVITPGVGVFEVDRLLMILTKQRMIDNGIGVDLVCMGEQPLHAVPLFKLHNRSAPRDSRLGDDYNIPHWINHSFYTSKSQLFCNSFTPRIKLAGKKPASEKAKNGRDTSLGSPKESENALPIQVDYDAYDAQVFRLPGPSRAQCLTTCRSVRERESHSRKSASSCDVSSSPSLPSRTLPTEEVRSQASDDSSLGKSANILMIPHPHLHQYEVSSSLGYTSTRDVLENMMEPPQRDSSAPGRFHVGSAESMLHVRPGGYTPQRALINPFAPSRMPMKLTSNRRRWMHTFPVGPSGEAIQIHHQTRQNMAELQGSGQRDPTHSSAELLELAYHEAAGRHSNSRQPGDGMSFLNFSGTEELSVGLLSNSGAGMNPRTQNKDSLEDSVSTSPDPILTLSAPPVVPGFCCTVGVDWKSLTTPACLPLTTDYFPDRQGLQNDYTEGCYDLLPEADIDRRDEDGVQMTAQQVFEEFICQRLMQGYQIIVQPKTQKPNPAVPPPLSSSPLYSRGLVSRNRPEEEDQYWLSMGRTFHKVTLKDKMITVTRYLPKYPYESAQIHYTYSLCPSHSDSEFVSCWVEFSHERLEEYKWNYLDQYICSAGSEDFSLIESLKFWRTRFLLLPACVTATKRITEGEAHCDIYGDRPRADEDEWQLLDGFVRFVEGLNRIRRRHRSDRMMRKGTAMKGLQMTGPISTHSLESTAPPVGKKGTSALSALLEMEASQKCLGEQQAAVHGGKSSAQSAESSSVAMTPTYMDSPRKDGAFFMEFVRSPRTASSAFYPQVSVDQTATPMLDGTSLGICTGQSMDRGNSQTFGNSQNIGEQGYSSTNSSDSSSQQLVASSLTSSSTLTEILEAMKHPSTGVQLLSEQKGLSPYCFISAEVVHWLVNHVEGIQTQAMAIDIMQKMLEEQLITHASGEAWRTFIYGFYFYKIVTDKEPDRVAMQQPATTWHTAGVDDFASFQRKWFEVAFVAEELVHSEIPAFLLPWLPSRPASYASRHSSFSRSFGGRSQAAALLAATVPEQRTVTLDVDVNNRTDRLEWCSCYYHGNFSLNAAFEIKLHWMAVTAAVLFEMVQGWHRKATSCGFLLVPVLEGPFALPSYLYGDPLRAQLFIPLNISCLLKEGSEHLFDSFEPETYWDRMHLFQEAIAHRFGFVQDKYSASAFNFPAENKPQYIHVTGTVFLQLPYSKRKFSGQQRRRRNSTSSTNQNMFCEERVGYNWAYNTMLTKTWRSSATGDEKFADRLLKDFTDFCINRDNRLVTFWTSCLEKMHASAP
UniProt Q05D60: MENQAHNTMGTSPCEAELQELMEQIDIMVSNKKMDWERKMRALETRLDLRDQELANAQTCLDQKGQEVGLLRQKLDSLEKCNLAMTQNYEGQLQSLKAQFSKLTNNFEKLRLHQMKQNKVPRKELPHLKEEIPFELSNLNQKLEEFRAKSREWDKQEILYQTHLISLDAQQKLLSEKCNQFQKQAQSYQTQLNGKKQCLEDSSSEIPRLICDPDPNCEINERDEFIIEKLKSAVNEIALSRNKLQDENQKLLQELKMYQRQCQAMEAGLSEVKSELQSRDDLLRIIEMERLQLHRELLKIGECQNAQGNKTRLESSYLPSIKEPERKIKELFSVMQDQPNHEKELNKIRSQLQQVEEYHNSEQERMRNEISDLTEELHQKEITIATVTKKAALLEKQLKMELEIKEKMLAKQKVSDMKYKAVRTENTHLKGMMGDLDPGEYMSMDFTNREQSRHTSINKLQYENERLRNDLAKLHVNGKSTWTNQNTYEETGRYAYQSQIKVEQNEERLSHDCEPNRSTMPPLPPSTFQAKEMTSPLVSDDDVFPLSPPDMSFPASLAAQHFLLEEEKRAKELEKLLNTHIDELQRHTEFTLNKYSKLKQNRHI
UniProt Q8IV53: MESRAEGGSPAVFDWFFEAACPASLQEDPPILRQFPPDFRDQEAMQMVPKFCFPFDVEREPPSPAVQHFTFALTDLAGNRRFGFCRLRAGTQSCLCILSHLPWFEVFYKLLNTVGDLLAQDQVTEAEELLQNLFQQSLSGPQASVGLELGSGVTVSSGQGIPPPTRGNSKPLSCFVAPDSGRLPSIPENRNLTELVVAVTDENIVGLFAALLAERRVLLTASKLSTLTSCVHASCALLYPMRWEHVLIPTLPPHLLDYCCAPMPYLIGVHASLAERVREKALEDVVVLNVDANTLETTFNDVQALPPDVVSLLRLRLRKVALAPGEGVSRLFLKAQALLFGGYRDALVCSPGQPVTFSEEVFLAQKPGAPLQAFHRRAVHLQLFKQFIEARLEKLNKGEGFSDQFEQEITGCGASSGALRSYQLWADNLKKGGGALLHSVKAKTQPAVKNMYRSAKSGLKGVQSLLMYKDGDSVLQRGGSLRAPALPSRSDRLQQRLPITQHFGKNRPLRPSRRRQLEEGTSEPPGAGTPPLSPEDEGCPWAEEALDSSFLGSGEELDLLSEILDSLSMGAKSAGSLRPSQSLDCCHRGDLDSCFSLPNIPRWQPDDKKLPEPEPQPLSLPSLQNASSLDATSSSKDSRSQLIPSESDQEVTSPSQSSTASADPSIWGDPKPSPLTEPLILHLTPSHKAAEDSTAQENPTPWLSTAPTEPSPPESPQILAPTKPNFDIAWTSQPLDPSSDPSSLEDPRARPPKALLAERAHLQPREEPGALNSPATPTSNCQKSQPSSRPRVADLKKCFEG

Columns and labels:
Assay in all cases: log2 fold change, soluble protein after heating vs DMSO (PISA); higher = thermal stabilisation; K562 lysate, 10 uM; active = over 0.2 and 3.5 SD of the protein, either way, in both replicates (recomputed)
[1] = compound: C#Cc1cccc(Nc2ncnc3cc(OCCOC)c(OCCOC)cc23)c1 [erlotinib]
In short: (§1)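 Thermal stability, expressed as log-two fold change relative to solvent controls, is given from duplicates. Crude K562 extract in PBS pH 7.4 with 1 mM MgCl2, at 1 mg/mL protein, was treated with 10 μM compound for 30 min and heated in aliquots for 3 min across 48°C-58°C. After pooling, adjustment to 0.5% NP-40 at 4°C and centrifugation at 21,000xg for 90 min, supernatant protein was measured by TMTpro 16plex LC-MS/MS with channel sums equalised.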

[2] = compound: C/C(=N\NC(=O)C1=CC(=CC=C1)S(=O)(=O)N2CCOCC2)/C3=C(C=CC(=C3)Cl)O
In short: as §1

[3] = compound: C1=CC(=CC=C1C2=NC3=C(N2)C=C(C=C3)C(=O)N)OC4=CC=C(C=C4)Cl
In short: as §1

[4] = compound: C1=CC2=C(C=CC(=C2)/C=C\3/C(=O)NC(=NCC4=CC=CS4)S3)N=C1
In short: as §1

[5] = compound: C1=CC2=NC=CN=C2C=C1/C=C/3\C(=O)NC(=O)S3
In short: as §1

[6] = compound: C1=CC=C(C=C1)C2=NC(=C(N2)C3=CC=NC=C3)C4=CC(=C(C=C4)Cl)O
In short: as §1

[7] = compound: C1=CC=C2C(=C1)C3=NNC4=CC=CC(=C43)C2=O
In short: as §1

[8] = compound: C1CCN(C1)C(=O)NC2=CC=CC(=C2)NC3=NC=C(C(=N3)NCCC4=CN=CN4)Br
In short: as §1

[9] = compound: C1CN(CCC1(CC2=CC=C(C=C2)Cl)N)C3=NC=NC4=C3C=CN4
In short: as §1

[10] = compound: C1COCCN1CCN2C3=CC=CC=C3N=C2NC(=O)C4=CC(=CC=C4)[N+](=O)[O-] [IRAK-1-4 Inhibitor I]
In short: as §1

[11] = compound: C=CC(=O)N1CCC[C@@H](n2nc(-c3ccc(Oc4ccccc4)cc3)c3c(N)ncnc32)C1 [ibrutinib]
In short: as §1

[12] = compound: CC(=O)c1cnc2ccc(-c3cc(Cl)c(O)c(Cl)c3)nc2c1N[C@H]1CC[C@H](CN(C)C)CC1
In short: as §1

[13] = compound: CC(C)(C)Cn1c(N)nc2ccc(-c3[nH]c(C(C)(C)C)nc3-c3ccc(F)cc3)nc21 [ralimetinib]
In short: as §1

[14] = compound: CC(C)(O)CC(=O)NCCn1ccc2ncnc(Nc3ccc(Oc4cccc(C(F)(F)F)c4)c(Cl)c3)c21
In short: as §1

[15] = compound: CC(C)C1=C2N=C(C=C(N2N=C1)NCC3=CC=CC=C3)NCCCCCCN
In short: as §1

[16] = compound: CC1=C(C(CC(=O)N1)C2=CC=C(C=C2)C(F)(F)F)C(=O)NC3=C(C=C4C(=C3)C=NN4)F
In short: as §1

[17] = compound: CC1=C(C2=C(C=C1)C(=O)C3=CC=CC=C3N2CCCN)C
In short: as §1

[18] = compound: CC1=C(C=C(C=C1)NC(=O)C2=CC(=CC=C2)C(C)(C)C#N)NC3=CC4=C(C=C3)N=CN(C4=O)C
In short: as §1

[19] = compound: CC1=C(C=C(C=C1)NC(=O)C2=CC(=CC=C2)N(C)C)NC(=O)C3=CC=C(C=C3)O
In short: as §1

[20] = compound: CC1=CC=C(C=C1)SC2=C3C=C(SC3=CN=C2)C(=O)N
In short: as §1

Measured: log2 fold change

DEK (UniProt P35659)
inactive: [1] 0.005 | [2] -0.01 | [3] 0.025 | [4] -0.017 | [5] -0.034 | [6] 0.023 | [7] -0.012 | [8] 0 | [9] 0.019 | [10] 0.006 | [11] -0.002 | [12] 0.008 | [13] -0.008 | [14] -0.004 | [15] 0.018 | [16] -0.003 | [17] -0.024 | [18] -0.001 | [19] 0.012 | [20] 0.016

DCTN1 isoform 4 (UniProt Q14203)
inactive: [1] -0.021 | [2] -0.166 | [3] 0.065 | [4] -0.109 | [6] 0.098 | [7] 0.126 | [8] -0.141 | [9] 0 | [10] 0.02 | [12] 0.089 | [13] 0.114 | [14] -0.076 | [15] 0.1 | [16] -0.074 | [17] -0.11 | [18] 0.044 | [19] 0.036 | [20] -0.029

DENND5B isoform 2 (UniProt Q6ZUT9)
inactive: [1] 0.119 | [3] 0.004 | [5] -0.032 | [6] 0.002 | [10] 0.09 | [11] -0.127 | [13] -0.016 | [14] -0.107 | [15] 0.063 | [16] -0.068 | [17] -0.046 | [19] 0.019

DES (UniProt P17661)
inactive: [1] 0.014 | [2] 0.012 | [3] 0.023 | [4] -0.074 | [5] -0.016 | [6] -0.026 | [7] -0.018 | [8] 0.048 | [9] 0.1 | [10] 0.09 | [11] 0.044 | [12] 0 | [13] 0.025 | [14] -0.16 | [15] -0.01 | [16] -0.026 | [17] -0.045 | [18] 0.057 | [19] -0.017 | [20] -0.057

DEF8 (UniProt Q6ZN54)
inactive: [1] -0.011 | [2] 0.058 | [3] 0.103 | [4] 0.004 | [5] 0.154 | [7] -0.05 | [8] -0.063 | [9] -0.055 | [11] 0.083 | [15] 0 | [17] 0.046 | [18] 0.053

DFFA isoform 2 (UniProt O00273)
inactive: [1] 0.097 | [2] 0.061 | [3] -0.06 | [4] -0.197 | [5] -0.204 | [6] 0.094 | [7] 0.058 | [10] 0.025 | [11] 0.108 | [12] 0.115 | [13] 0.041 | [14] 0.114 | [15] 0.095 | [16] -0.093 | [17] -0.161 | [18] -0.041 | [19] -0.056 | [20] -0.009

DDX4 (UniProt Q9NQI0)
inactive: [1] -0.043 | [2] 0.165 | [3] -0.112 | [4] -0.028 | [5] -0.055 | [6] 0.114 | [7] -0.004 | [8] 0.002 | [9] 0.011 | [10] -0.109 | [11] 0.019 | [12] -0.004 | [13] 0.04 | [14] 0.087 | [15] -0.032 | [16] 0.008 | [17] 0.1 | [19] -0.051 | [20] -0.026

CYP2S1 isoform 2 (UniProt Q96SQ9)
inactive: [1] -0.026 | [2] -0.291 | [3] -0.018 | [4] -0.096 | [6] 0.07 | [7] -0.123 | [8] -0.198 | [9] 0.08 | [10] -0.044 | [12] 0.146 | [13] 0.048 | [14] 0 | [15] 0.061 | [17] -0.084 | [18] -0.028 | [19] 0.07 | [20] -0.229

DDX21 (UniProt Q9NR30)
inactive: [1] 0.005 | [2] -0.028 | [3] -0.051 | [4] 0.047 | [5] 0.01 | [6] 0.032 | [7] 0.027 | [8] 0.006 | [9] 0.012 | [10] -0.018 | [11] -0.023 | [12] -0.006 | [13] 0.003 | [14] -0.001 | [15] 0.009 | [16] -0.024 | [17] -0.003 | [18] -0.011 | [19] 0.046 | [20] 0.025

DEPDC5 (UniProt O75140)
inactive: [1] 0.252 | [2] -0.048 | [3] 0.081 | [4] 0.084 | [5] 0.013 | [7] -0.079 | [11] 0.096 | [15] 0.109 | [16] -0.004

DEUP1 (UniProt Q05D60)
inactive: [1] 0.143 | [3] 0.168 | [5] 0.049 | [6] 0.167 | [8] 0.083 | [9] -0.012 | [10] 0.167 | [11] 0.145 | [12] -0.35 | [13] -0.423 | [14] -0.482 | [15] 0.043 | [16] 0.006 | [17] -0.255 | [18] 0.034 | [19] 0.116 | [20] -0.32

DENND1C (UniProt Q8IV53)
inactive: [1] 0.018 | [2] 0.118 | [3] 0.063 | [4] 0.031 | [5] 0.003 | [6] -0.051 | [7] -0.204 | [10] 0.089 | [11] 0.056 | [13] 0.01 | [14] -0.147 | [15] -0.061 | [17] -0.077 | [18] 0.165 | [19] 0.01
